These are yes or no findings as the source states them, for the method shown. In cells and extracts the contact can be indirect. Some binding calls cover weakened binding; strength is not graded here. Sequences can lack the tags named with a protein.
Key:
[1] = target: T1, Mto1-SZZ (protein A-tagged Mto1) (Schizosaccharomyces pombe, UniProt O94488 1-1115); assay: pull-down; IgG-coupled Dynabeads pull Mto1-SZZ from extracts of interphase (asynchronous) S. pombe cells (mto2+, mto2[6A], mto2[13A], mto2[17A], mto2[24A]); 90 min at 4 °C; lysis buffer 25 mM sodium phosphate pH 7.5, 100 mM KCl, 0.5 mM EDTA, 0.2% Triton X-100 with protease and phosphatase …; western blot
T1 construct: Mto1, Schizosaccharomyces pombe; Bait of all IgG-bead pulldowns; also called SZZ-tagged Mto1; source: S. pombe, gene tagged by PCR-based methods, in cell extract
T1 sequence (looked up): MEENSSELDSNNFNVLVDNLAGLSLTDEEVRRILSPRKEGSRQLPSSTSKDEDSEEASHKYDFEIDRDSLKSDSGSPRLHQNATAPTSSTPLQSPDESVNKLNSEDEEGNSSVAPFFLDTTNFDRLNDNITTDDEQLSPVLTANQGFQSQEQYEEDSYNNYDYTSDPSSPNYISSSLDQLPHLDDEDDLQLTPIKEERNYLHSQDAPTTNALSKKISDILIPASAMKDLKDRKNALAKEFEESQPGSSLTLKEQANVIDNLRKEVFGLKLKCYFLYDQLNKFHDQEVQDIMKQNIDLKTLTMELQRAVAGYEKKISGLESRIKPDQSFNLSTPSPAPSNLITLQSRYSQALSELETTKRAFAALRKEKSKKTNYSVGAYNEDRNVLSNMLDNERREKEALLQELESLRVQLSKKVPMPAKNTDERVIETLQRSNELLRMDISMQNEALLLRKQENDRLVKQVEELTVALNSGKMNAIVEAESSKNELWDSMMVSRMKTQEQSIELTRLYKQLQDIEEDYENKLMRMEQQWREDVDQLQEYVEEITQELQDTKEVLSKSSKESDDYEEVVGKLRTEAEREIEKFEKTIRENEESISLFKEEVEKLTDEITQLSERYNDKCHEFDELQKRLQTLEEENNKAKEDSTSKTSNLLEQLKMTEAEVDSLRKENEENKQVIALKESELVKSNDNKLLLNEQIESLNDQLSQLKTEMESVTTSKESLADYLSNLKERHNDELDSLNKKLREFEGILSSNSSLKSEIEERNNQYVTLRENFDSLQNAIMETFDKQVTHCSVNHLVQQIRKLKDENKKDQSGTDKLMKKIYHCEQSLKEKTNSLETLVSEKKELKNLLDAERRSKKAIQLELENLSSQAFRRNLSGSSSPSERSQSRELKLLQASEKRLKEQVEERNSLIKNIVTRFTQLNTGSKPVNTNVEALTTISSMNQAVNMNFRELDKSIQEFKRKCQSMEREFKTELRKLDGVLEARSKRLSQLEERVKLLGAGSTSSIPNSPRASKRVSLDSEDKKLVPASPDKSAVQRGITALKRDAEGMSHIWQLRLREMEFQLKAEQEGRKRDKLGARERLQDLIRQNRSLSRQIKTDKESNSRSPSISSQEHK

[2] = target: T1, Mto1-SZZ (protein A-tagged Mto1); assay: condition: only in interphase mto2[24D] and mto2[24E] cells; pull-down; IgG-bead pulldown of Mto1-SZZ from extracts of interphase mto2[24D] and mto2[24E] phosphomimetic cells (Supplementary Fig. 8a); western blot
[3] = target: T1, Mto1-SZZ (protein A-tagged Mto1); assay: pull-down; IgG-coupled Dynabeads pull Mto1-SZZ from extracts of metaphase-arrested mto2-phosphomutant cells (mto2[6A], mto2[13A], mto2[17A], mto2[24A]; nda3-KM311); western blot

binding [1]: binds | binding [2]: no binding | binding [3]: binds
B1: Gtb1 (S. pombe γ-tubulin) (natural protein, UniProt P25295 1-446, looked up)
chain: MGREIITLQAGQCGNQIGSQFWQQLCLEHGIGPDGTLESFATEGVDRKDVFFYQSDDTRYIPRAILIDLEPRVVNNILSDTYGSLYNPENILITKNGGGAGNNWANGYSHAERIFEDIMDMIDREADGSDSLEGFSLLHSIAGGTGSGLGSFLLERLNDRYPKKIIQTYSVFPNSQSVSDVVVQPYNSLLALKRLTLNADSVVVLDNAALAHIAADRLHTQNPTFHQQNQLVSTVMSASTTTLRYPGYMNNDLVSIIASLIPSPRCHFLLTSYTPFTNQQVEEAKAIRKTTVLDVMRRLLLPKNQMVSVNPSKKSCFISILDIIQGEADPADVHKSLLRIRERRYASFIPWGPASIQVALSKKSPYIKTNHRVSGLMLANHTSIASLFKRTLDQYDRLRKRNAFLEQYKKEAIFEDDLNEFDSSRDVVADLINEYEACEDPNYLSL
notes: γ-tubulin Gtb1, Schizosaccharomyces pombe; Detected by anti-γ-tubulin blot (GTU-88); also called read-out of the γ-tubulin complex (γ-TuC); source: endogenous, S. pombe cell extract

From article PMC4918325, “Mto2 multisite phosphorylation inactivates non-spindle microtubule nucleation complexes during mitosis” (Nature Communications, 2015)
